Reference: patent US20150307599A1
These are yes or no findings as the source states them, for the method shown. Some binding calls cover weakened binding; strength is not graded here.

What was measured:
[1] = target: T1, Peptide 2p18 (mPP with last 4 NPY residues); test: SPR (Biacore), FIG. 10
T1 sequence (peptide, C-terminal amide (-NH2)): YETQLRRYINTLTRQRY

[2] = target: T2, Peptide 3p13 (NPY C terminus with similar a.a. substitutions); test: SPR (Biacore), FIGS. 11A and 11B
T2 sequence (peptide, C-terminal amide (-NH2)): AAAAAAAAAAAAAARRY

[3] = target: T3, Peptide 3p14 (NPY C terminus with similar a.a. substitutions); test: SPR (Biacore), FIGS. 11A and 11B
T3 sequence (peptide, C-terminal amide (-NH2)): AAAAAAAAAAAAAAKRY

[4] = target: NPY (mouse NPY, Phoenix) (mouse); test: indirect ELISA, peptide coated at 20 ug/mL, MAb at 1 ug/mL
[5] = target: Peptide 1p1 (NPY last 17 residues Alanine Scan) (mouse); test: as above
[6] = target: Peptide 1p10 (NPY last 17 residues Alanine Scan); test: as above
[7] = target: Peptide 1p11 (NPY last 17 residues Alanine Scan); test: as above
[8] = target: Peptide 1p12 (NPY last 17 residues Alanine Scan); test: as above
[9] = target: Peptide 1p13 (NPY last 17 residues Alanine Scan); test: as above
[10] = target: Peptide 1p14 (NPY last 17 residues Alanine Scan); test: as above
[11] = target: Peptide 1p15 (NPY last 17 residues Alanine Scan); test: as above
[12] = target: Peptide 1p2 (NPY last 17 residues Alanine Scan); test: as above
[13] = target: Peptide 1p3 (NPY last 17 residues Alanine Scan); test: as above
[14] = target: Peptide 1p4 (NPY last 17 residues Alanine Scan); test: as above
[15] = target: Peptide 1p5 (NPY last 17 residues Alanine Scan); test: as above
[16] = target: Peptide 1p6 (NPY last 17 residues Alanine Scan); test: as above
[17] = target: Peptide 1p7 (NPY last 17 residues Alanine Scan); test: as above
[18] = target: Peptide 1p8 (NPY last 17 residues Alanine Scan); test: as above
[19] = target: Peptide 1p9 (NPY last 17 residues Alanine Scan); test: as above
[20] = target: T4, Peptide 2p1 (Poly Ala with shrinking NPY C term); test: as above
T4 sequence (peptide, C-terminal amide (-NH2)): AYSALRHYINLITRQRY

[21] = target: T5, Peptide 2p10 (Poly Ala with shrinking NPY C term); test: as above
T5 sequence (peptide, C-terminal amide (-NH2)): AAAAAAAAAAAITRQRY

[22] = target: T6, Peptide 2p11 (Poly Ala with shrinking NPY C term); test: as above
T6 sequence (peptide, C-terminal amide (-NH2)): AAAAAAAAAAAATRQRY

[23] = target: T7, Peptide 2p12 (Poly Ala with shrinking NPY C term); test: as above
T7 sequence (peptide, C-terminal amide (-NH2)): AAAAAAAAAAAATRQRY

[24] = target: T8, Peptide 2p13 (Poly Ala with shrinking NPY C term); test: as above
T8 sequence (peptide, C-terminal amide (-NH2)): AAAAAAAAAAAAARQRY

[25] = target: T9, Peptide 2p14 (Poly Ala with shrinking NPY C term); test: as above
T9 sequence (peptide, C-terminal amide (-NH2)): AAAAAAAAAAAAAAQRY

[26] = target: T1, Peptide 2p18 (mPP with last 4 NPY residues); test: as above
[27] = target: T10, Peptide 2p2 (Poly Ala with shrinking NPY C term); test: as above
T10 sequence (peptide, C-terminal amide (-NH2)): AASALRHYINLITRQRY

[28] = target: T11, Peptide 2p20 (Poly Glycine with last 3 NPY residues); test: as above
T11 sequence (peptide, C-terminal amide (-NH2)): GGGGGGGGGGGGGGQRY

[29] = target: T12, Peptide 2p3 (Poly Ala with shrinking NPY C term); test: as above
T12 sequence (peptide, C-terminal amide (-NH2)): AAAALRHYINLITRQRY

[30] = target: T13, Peptide 2p4 (Poly Ala with shrinking NPY C term); test: as above
T13 sequence (peptide, C-terminal amide (-NH2)): AAAAARHYINLITRQRY

[31] = target: T14, Peptide 2p5 (Poly Ala with shrinking NPY C term); test: as above
T14 sequence (peptide, C-terminal amide (-NH2)): AAAAAAHYINLITRQRY

[32] = target: T15, Peptide 2p6 (Poly Ala with shrinking NPY C term); test: as above
T15 sequence (peptide, C-terminal amide (-NH2)): AAAAAAAYINLITRQRY

[33] = target: T16, Peptide 2p7 (Poly Ala with shrinking NPY C term); test: as above
T16 sequence (peptide, C-terminal amide (-NH2)): AAAAAAAAINLITRQRY

[34] = target: T17, Peptide 2p8 (Poly Ala with shrinking NPY C term); test: as above
T17 sequence (peptide, C-terminal amide (-NH2)): AAAAAAAAANLITRQRY

[35] = target: T18, Peptide 2p9 (Poly Ala with shrinking NPY C term); test: as above
T18 sequence (peptide, C-terminal amide (-NH2)): AAAAAAAAAALITRQRY

[36] = target: NPY (mouse NPY, Phoenix) (mouse); test: SPR (Biacore 2000), biotinylated MAb on SA chip, peptide in solution
[37] = target: human PYY (Phoenix) (human); test: as above
[38] = target: NPY (mouse NPY, Phoenix) (mouse); test: BLI (Octet RED96), biotinylated MAb on SA sensors, peptide in solution
[39] = target: human PYY (Phoenix) (human); test: as above
[40] = target: T19, 1p32-…; test: indirect ELISA, peptide coated on the plate (20 µg/mL), MAb 5E12-B7 at 1 µg/mL, O.D. 450 nm
T19 sequence (peptide, C-terminal amide (-NH2)): YINLITRQRY

[41] = target: NPY (mouse NPY, Phoenix) (mouse); test: as above
[42] = target: human PYY (Phoenix) (human); test: as above
[43] = target: NPY (mouse NPY, Phoenix) (mouse); test: Biacore 2000 (SPR), biotinylated MAb 5E12-B7 on a streptavidin chip, peptide injected; concentration of the peptide not printed on the sheet
[44] = target: T4, Peptide 2p1 (Poly Ala with shrinking NPY C term); test: as above
[45] = target: human PYY (Phoenix) (human); test: as above
[46] = target: NPY (mouse NPY, Phoenix) (mouse); test: Biacore 2000 (SPR), biotinylated MAb 5E12-B7 on a streptavidin chip, peptide injected; concentration of the peptide not printed on the sheet; the sheet says 'Human NPY', the NPY peptide of the Biacore work is the Phoenix peptide of Table 3 (human and mouse NPY are identical)

Measured: binding

B1: MAb 5E12-B7 (antibody, V domains shown)
VH: QVQLQHPGTEVVKPGASVKLSCKASGYTFTNYWMHWVKQRPGQGLEWIGNIDPSNGGTNYNEKFKSKATLTVDKSSSTAYMQLSSLTSEDSAVYYCASFAYWGQGTLVTVSA
VL: DIQMTQSPASLSASVGETVTITCRASGNIHNYLAWYQQKQGKSPQLLVYNAKTLADGVPSRFSGSGSGTQYSLKISSLRPEDFGSYYCQHFWSPPFTFGSGTKLEIK
binds: all assays above
